{"sequences": {"note": "The chains behind the UniProt entries cited, without tags or fusion partners.", "UniProt P20263": "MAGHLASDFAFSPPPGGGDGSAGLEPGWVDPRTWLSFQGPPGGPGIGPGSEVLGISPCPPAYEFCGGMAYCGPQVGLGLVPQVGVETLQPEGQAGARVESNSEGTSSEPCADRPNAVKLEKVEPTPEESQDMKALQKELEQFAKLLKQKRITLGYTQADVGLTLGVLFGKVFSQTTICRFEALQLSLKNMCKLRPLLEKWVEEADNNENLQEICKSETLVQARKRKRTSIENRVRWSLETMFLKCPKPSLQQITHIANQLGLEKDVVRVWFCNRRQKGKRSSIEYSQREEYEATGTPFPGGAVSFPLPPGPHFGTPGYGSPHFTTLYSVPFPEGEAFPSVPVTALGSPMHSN", "UniProt Q99LT0": "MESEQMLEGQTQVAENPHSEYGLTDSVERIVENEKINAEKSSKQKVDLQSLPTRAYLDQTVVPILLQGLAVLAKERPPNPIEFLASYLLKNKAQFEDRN"}, "source": "paper PMC5732323", "molecular_target": "OCT4 (UniProt P20263)", "test": "co-IP; anti-OCT4 on Protein G Dynabeads, 200 ug pre-cleared nuclear extract, IP buffer with 100 mM NaCl, 3 h at 4°C; MEFs at day 4 of MKOS reprogramming with control or Smad3CA vector; blots for DPY30 and p300", "note": "Results are given in words; binding and its absence hold for the method and conditions named. Binding seen in cells or lysates may run through a third protein. Some results given as binding are weak or reduced against the parent protein; the word gives no strength.", "data": [{"substance": "DPY30 (part of the MLL complex) (from UniProt Q99LT0 1-99)", "values": [{"measurement": "binding", "value": "binds"}]}]}
